Experimental data: publication PMC8654301
No constants are given. Whether binding was seen depends on the method and setting. Binding seen in cells or lysates may run through a third protein. Some results given as binding are weak or reduced against the parent protein; the word gives no strength. For part of these data: Sequences can lack the tags named with a protein.

T1: TREM-2 (endogenous, CD4+ T cells and lung tissue) (human (endogenous in CD4+ T cells and lung tissue)) (UniProt Q9NZC2)
T1 sequence: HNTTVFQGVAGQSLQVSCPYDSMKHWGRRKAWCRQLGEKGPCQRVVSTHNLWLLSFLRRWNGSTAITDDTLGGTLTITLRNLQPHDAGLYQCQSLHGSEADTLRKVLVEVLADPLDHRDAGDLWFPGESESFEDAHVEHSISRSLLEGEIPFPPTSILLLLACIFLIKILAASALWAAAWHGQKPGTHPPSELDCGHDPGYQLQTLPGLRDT

T2: HA-tagged TREM-2 full-length (triggering receptor expressed on myeloid cells 2) (human) (UniProt Q9NZC2)
T2 sequence: T1 sequence

B1: HA-tagged TREM-2 full-length (triggering receptor expressed on myeloid cells 2) (receptor, UniProt Q9NZC2 19-230)
chain: T1 sequence

Tests used:
Assay in all cases: co-IP
[1] = biological target: T1, TREM-2 (endogenous, CD4+ T cells and lung tissue) (human (endogenous in CD4+ T cells and lung tissue))
[2] = biological target: T2, HA-tagged TREM-2 full-length (triggering receptor expressed on myeloid cells 2) (human)
[3] = biological target: FLAG-tagged SARS-CoV-2 M protein (membrane protein) (SARS-CoV-2) (UniProt P0DTC5)

Molecule | binding [1] | binding [2] | other results
SARS-CoV-2 M protein in lung tissue of a patient with COVID-19 (from UniProt P0DTC5 1-222) | binds | – | –
ZAP70 (ζ-chain associated protein of 70 kDa; endogenous, CD4+ T cells and lung tissue) (from UniProt P43403 1-619) (enzyme) | binds | – | –
FLAG-tagged SARS-CoV-2 M protein (membrane protein) (from UniProt P0DTC5 1-222) | – | binds | –
Myc-tagged CD3ζ (from UniProt P20963-1 22-164) | – | binds | –
CD3ζ (endogenous, CD4+ T cells and lung tissue) (from UniProt P20963-1 22-164) | binds | – | –
B1 | – | – | binding [3]: binds
